{"source": "paper PMC7984842", "about": "“Genetic disruption of WASHC4 drives endo-lysosomal dysfunction and cognitive-movement impairments in mice and humans” (eLife, 2021)", "note": "No constants are given. Whether binding was seen depends on the method and setting. In cells and extracts the contact can be indirect. These calls come from enrichment with a bait or labelling near it, and not all partners need be listed. Sequences can lack the tags named with a protein."}
{"molecular_target": "T1, WASH1-BioID2-HA (UniProt Q8VDD8)", "T1 sequence": "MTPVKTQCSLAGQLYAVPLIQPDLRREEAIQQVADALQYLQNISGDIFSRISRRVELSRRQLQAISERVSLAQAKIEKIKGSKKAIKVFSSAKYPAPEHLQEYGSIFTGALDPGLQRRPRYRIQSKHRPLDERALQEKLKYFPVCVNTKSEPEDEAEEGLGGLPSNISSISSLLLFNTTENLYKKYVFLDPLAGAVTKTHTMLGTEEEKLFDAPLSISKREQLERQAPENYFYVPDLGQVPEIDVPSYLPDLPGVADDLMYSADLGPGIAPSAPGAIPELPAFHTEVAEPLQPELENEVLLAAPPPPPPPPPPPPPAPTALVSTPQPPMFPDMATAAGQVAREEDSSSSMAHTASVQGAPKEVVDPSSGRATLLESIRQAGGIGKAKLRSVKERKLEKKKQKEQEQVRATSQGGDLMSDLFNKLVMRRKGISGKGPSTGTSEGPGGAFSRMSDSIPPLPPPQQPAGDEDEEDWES", "test": "proximity labelling; in vivo BioID (iBioID): AAV hSyn1-WASH1-BioID2-HA in wild-type mouse brain, biotin 24 mg/kg for 7 days, biotinylated proteins purified on NeutrAvidin beads, label-free LC-MS/MS; enrichment over solubleBioID2 control (fold-change >=4, FDR<0.05)"}
{"binder": "DLGAP3 (protein, UniProt Q6PFD5 1-977) MRGYHGDRGSHPRPARFADQQHMDVGPAARAPYLLGSREAFSTEPRFCAPRAGLGHLSPEGPLSLSEGPSSVGPEGGPGGVGAGGGSSTFPRMYPGQGPFDTCEDCVGHPQGKGATRLPPTLLDQFEKQLPVQQDGFHTLPYQRGPAGPGPGPGSGAAPEARSESPSRIRHLVHSVQKLFAKSHSLEAPGKRDYNGPKADGRGSSGGDSYSGPGSGGTPTSHHHHHHHHHHHHQSRHGKRSKSKDRKGDGRHQTKATGWWSSDDNLDSDSGFLGGRPPGEPGGPFCLDAPDGSYRDLSFKGRSGGSEGRCLACTGMSMSLDGQSVKRSAWHTMMVSQGRDGYPGAGPGKGLLGPETKAKARTYHYLQVPQDDWGGYPTGGKDGEIPCRRMRSGSYIKAMGDEESGDSDGSPKTSPKALARRFASRRSSSVDTARINCCVPPRIHPRSSIPGYSRSLTTGQLSEEFNQQLEAVCGSVFGELESQAVDALDLPGCFRMRSHSYLRAIQAGCSQDDDCLPLLAAPASVSGRPGSSFNFRKAPPPIPPGSQAPPRISITAQSSTDSAHESFTAAEGPARRCSSADGLDGPTMGARTLELAPVPPRASPKPPTLIIKTIPGREELRSLARQRKWRPSIGVQVETISDSDTENRSRREFHSIGVQVEEDKRRARFKRSNSVTAGVQADLELEGLAGLATVATEDKALQFGRSFQRHASEPQPGPRAPTYSVFRTVHTQGQWAYREGYPLPYEPPATDGSPGPTPVPAPGPGSGRRDSWMERGSRSLPDSGRTSPCPRDGEWFIKMLRAEVEKLEHWCQQMEREAEDYELPEEILEKIRSAVGSTQLLLSQKVQQFFRLCQQSLDPTAFPVPTFQDLAGFWDLLQLSIEDVTLKFLELQQLKANSWKLLEPKEEKKVPPPIPKKPSRGRGVPVKERSLDSVDRQRQEARKRLLAAKRAASFRHSSATESADSIEIYIPEAQTRL", "binding": "binds"}
{"binder": "DLGAP4 (protein, UniProt B1AZP2 1-992) MKGLGDSRPRHLSDSLDPPHEPLFAGPDRNPYLLSPTEAFAREARFPGQNTLPGDGLFPLNNQLPPPSSTFPRIHYNSHFEVPEESPFPSHAQATKINRLPANLLDQFEKQLPIHRDGFSTLQFPRGEAKARGESPGRIRHLVHSVQRLFFTKAPSMEGTAGKVGGNGSKKGGLEDGKGRRAKSKERAKAGEPKRRSRSNISGWWSSDDNLDGEGGAFRSGPASGLMTLGRQQERTQPRYFMHAYNTISGHMLKTTKNTTTELTAPPPPPAPPATCPSLGVGTDTNYVKRGSWSTLTLSHAHEVCQKTSATLDKSLLKSKSCHQGLAYHYLQVPGGGGEWSTTLLSPRDMDSTAEGPIPCRRMRSGSYIKAMGDEDSDESGGGSPKPSPKTAARRQSYLRATQQSLGEQSNPRRSLDRLDSVDMLLPSKCPSWEDDYNPISDSLNDSSCISQVFGQASLIPQLFGHDQQVREADLSDQYEAACESACSEAESTTAEALDLPLPSYFRSRSHSYLRAIQAGCSQEEDSVSLQSLSPPPSTGSLSNSRTLPSSSCLVAYKKTPPPVPPRTTSKPFISVTVQSSTESAQDTYLDSQDHKSEVTSQSGLSNSSDSLDSSTRPPSVTRGGITPGPEAPEPPPKHAALKSEQGTLTSSESHSEAIPKRKLSSIGIQVDCIQPVPKEEPSPATKFQSIGIQVEDDWRSSAPSHSMSSRRDTDSDTQDANDSSCKSSERSLPDCTSHPNSISIDAGPRQAPKIAQIKRNLSYGDNSDPALEASSLPPPDPWLETSSSSPAEPAQPGACRRDGYWFLKLLQAETERLEGWCCQMDKETKENNLSEEVLGKVLSAVGSAQLLMSQKFQQFRGLCEQNLNPDANPRPTAQDLAGFWDLLQLSIEDISMKFDELYHLKANSWQLVETPEKRKEEKKPPPPVPKKPAKSKAAVSRDKASDAGDKQRQEARKRLLAAKRAASVRQNSATESADSIEIYVPEAQTRL", "binding": "binds"}
{"binder": "WASHC4 (SWIP), mouse (protein, UniProt Q3UMB9 1-1173) MAVDTLSPDWDFDRVDDGSQKIHAEVQLKNYGRFLEEYTSQLRRIEDALDDLIGDVWDFNLDPIALKLLPYEQSSLLELIKTENKVLNKVITVYAALCCEIKKLKYEAETKFYNGLLFYGEGATDSSMVEGDCQIQMGRFVSFLQELSCFVTRCYEVVMNVIHQLAALYISNKIGPKIIETTGVHFQTMYEHLGELLTVLLTLDEIVDNHVTLKDHWTMYKRLLKSVHHNPSKFGIQEEKLKPFEKFLLKLEGQLLDGMIFQACIEQQFDSLNGGISVSKNSTFAEEFAHSIRSIFANVEAKLGEPSEIDQRDKYVGICGLFVLHFQIFRTVDKKFYKSLLDICKKVPAITLTANIIWFPDNFLIHKMPAAAKLLDRKSLQAIKIHRDTFLQQKAQSLNKDVQSYYVFVSSWMMKMESMLSKEQRMDTFAEDLTNRCNVFIQGFLYAYSISTIIKTTMNLYMSMQKPMTKTSVKALCRLIELLKAIEHMFYRRSMVVADSVSHITQHLQHQALSSISVAKKRVISDKKYSEQRLDVLSALVLAENTLNGPSTKQRRLIVSLALSVGTQMKTFKDEELFPLQVVMKKLDLISELRERVQAQCDCCFLYWHRAVFPIYLDDVYENAVDAARLHYMFSALRDCVPAMMHSRHLESHELLLDCYDKEIMDILNEHLLDKLCKEIEKDLRLSVHTHLKLDDRNPFKVGRKDLALFFSLNPIRFFNRFIDIRAYVTHYLDKTFYNLTTVALHDWATYSEMRNLATQRYGLVMTEAHLPSQTLEQGLDVLEIMRNIHIFVSRYLYNLNNQIFIERTSNNKHLNTINIRHIANSIRTHGTGIMNTTVNFTYQFLKKKFYIFSQFMYDEHIKSRLIKDIRFFREIKDQNDHKYPFDRAEKFNRGIRKLGITPEGQSYLDQFRQLISQIGNAMGYIRMIRSGGLHCSSNAIRFVPDLEDIVSFEELVKEEGLAEETLRAARHLDSVLSDHTRNSAEGTEYFKMLVDVFAPEFRRPKNIHLRNFYIIVPPLTLNFVEHSISCKEKLNKKNKLGAAFTDDGFAMGVAYTLKLLDQYQEFDSLHWFQSVREKYIKEIRAVAKQQNVQSTSQDEKLLQTMNLTQKRLEVYLQEFELLYFSLSSARIFFRADKTAAEENQEKKEKEEETKTSNGDGPESTVSADPVVK", "binding": "binds"}
{"binder": "SNX2 (protein, UniProt Q9CWK8 1-519) MAAEREPPPLGDVKPTDFEELEDGEDLFTSTVSTLESSPSSPEPASLPAEDISANSNGSKPVEVVLDDDREDLFAEATEEVSLDSPERELILSSEPSPAVTPVTPTTLIAPRIESKSISAPVIFDRSRDEIEEEANGDIFDIEIGVSDPEKVGDGMNAYMAYRVTTKTSLSMFSKSEFSVKRRFSDFLGLHSKLASKYLHVGYIVPPAPEKSIVGMTKVKVGKEDSSSTEFVEKRRAALERYLQRTVKHPTLLQDPDLRQFLESSELPRAVNTQALSGAGILRMVNKAADAVNKMTIKMNESDAWFEEKQQQFENLDQQLRKLHASVEALVCHRKELSANTAAFAKSAAMLGNSEDHTALSRALSQLAEVEEKIDQLHQEQAFADFYMFSELLSDYIRLIAAVKGVFDHRMKCWQKWEDAQITLLKKRETEAKMMVANKPDKIQQAKNEIREWEAKVQQGERDFEQISKTIRKEVGRFEKERVKDFKAVIIKYLESLVQTQQQLIKYWEAFLPEAKAIA", "binding": "binds"}
